# Laboratory results: PubChem BioAssay AID504791 (Drosophila RNAi Screening Center, 2011)
# Purpose: 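Factors in Argonaute-based small RNA production and activity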 (primary screen)
# Cell system: Drosophila S2-derived reporter cells
# Reagent: long dsRNA against Drosophila genes, about 150-250 ng dsRNA per well (siRNA assay); about 80-120 ng (miRNA assay)
# Time to read-out: about 5 days (siRNA assay); about 4 days (miRNA assay)
# Treatment: copper sulfate induction of reporters: 25 µM (siRNA assay); 200 mM stated (miRNA assay), 1-2 days before reading
# Measurement: 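Per-well ratio of Renilla over firefly light, expressed relative to that plate's average ratio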
# Scale: siRNA reporter hit score: higher = 3 marks a strong hit with raised ratio; -3 a strong hit with lowered ratio
# Call rule: 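First-pass picks had plate-scaled ratios over 1.5 for the siRNA assay, over 1.6 for the miRNA assay, or under 0.6; two distinct dsRNAs had to score alike on retest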
# The screen tested about 23,000 reagents; shown is an unselected part of those that have a named target and a result. Of all reagents, 199 (0.86%) are marked active. 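Plate-scaled ratios behind the calls are not deposited; printed light signals are raw; many rows marked increased or decreased are still called inactive.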 The numbers tell different reagents against one gene apart. A plus sign joins genes that one reagent is predicted to hit. Further read-outs or replicates are left out here.
The first 2 entries, ahead of the listing:
Target gene,reagent no.,siRNA reporter hit score,stable siRNA reporter change,miRNA reporter change,"stable assay Renilla, run 1 (luminescence)",Call
CG32628 (retired record),1,,reporter ratio raised past the hit cutoff,,2808,inactive
CG8349,1,,,,6767,inactive

The listing, repeating the preview:
Target gene,reagent no.,siRNA reporter hit score,stable siRNA reporter change,miRNA reporter change,"stable assay Renilla, run 1 (luminescence)",Call
CG32628 (retired record),1,,reporter ratio raised past the hit cutoff,,2808,inactive
CG8349,1,,,,6767,inactive
gce,1,,,,5808,inactive
gce,2,,reporter ratio lowered past the hit cutoff,,5123,inactive
Trax,1,,reporter ratio lowered past the hit cutoff,,7195,inactive
eIF3j,1,,,,8114,inactive
CSN1b,1,,,,4992,inactive
CG3557,1,,,,12065,inactive
Cpr65Ax2 + Cpr65Ax1,1,,,,6482,inactive
Cpr65Ax2 + Cpr65Ax1,2,,,,6754,inactive
CG40439,1,,,,4163,inactive
Acph-1,1,,,,6210,inactive
CG4553,1,,,,6558,inactive
Atg8a,1,,,,6047,inactive
CG7137,1,,,,9058,inactive
rib,1,,,,8751,inactive
Cow,1,,,,5559,inactive
Cow,2,,,,6842,inactive
CG7691,1,,,,6660,inactive
CG14883,1,,,,7058,inactive
CR33328 (retired record),1,,,,4015,inactive
vis + achi,1,,,,7374,inactive
DCTN5-p25,1,,,,8084,inactive
Polr2E,1,-3,,,3712,inactive
Grip75,1,,,,6864,inactive
Rh2,1,,,,7907,inactive
Cyp4ac2,1,,,,7024,inactive
glo,1,,,reporter ratio raised past the hit cutoff,6851,active
glo,2,,,reporter ratio raised past the hit cutoff,,active
CG14339,1,,,,8010,inactive
Dbct,1,,,,8586,inactive
CG14196,1,,,,5542,inactive
CG2854,1,,,,5966,inactive
Atet,1,,,,7398,inactive
CG12934,1,,,,5779,inactive
Cpr62Ba,1,,,,5459,inactive
ATPsynG,1,,,,5412,inactive
ProtB,1,,,,8792,inactive
CG10353,1,,,,4591,inactive
Rtf1,1,,reporter ratio lowered past the hit cutoff,,7258,active
BaraA1 + BaraA2,1,,,,5615,inactive
CG6013,1,,,,8138,inactive
SKIP,1,,,,7186,inactive
SKIP,2,,,,8605,inactive
SKIP,3,,,,6774,inactive
SKIP,4,,,,4870,inactive
SKIP,5,,reporter ratio lowered past the hit cutoff,,2379,inactive
Drice,1,,,,8946,inactive
Tim23,1,,,,4292,inactive
CG8774,1,,,,7652,inactive
Prat2,1,,,,7963,inactive
mei-38,1,,,,6184,inactive
CG31036,1,,,,5603,inactive
CG31036,2,,,,5900,inactive
Atg8b,1,,,,7008,inactive
Ns3,1,,,,2855,inactive
pyd,1,,,,6615,inactive
pyd,2,,,,7591,inactive
pyd,3,,,,6759,inactive
pyd,4,,,,6726,inactive
pyd,5,,,,8607,inactive
pyd,6,,,,5546,inactive
pyd,7,,,,6830,inactive
pyd,8,,,,9114,inactive
pyd,9,,,,3428,inactive
Rexo5,1,,,,7623,inactive
png,1,,,,5727,inactive
CG6749,1,,,,5244,inactive
Synd,1,,,,8545,inactive
CG31391,1,,,,6134,inactive
Srg3,1,,,,4532,inactive
Srg3,2,,,,7134,inactive
CR46300,1,,,,6010,inactive
Cpr47Eb,1,,,,7595,inactive
Hr78,1,,,,9398,inactive
CG7377,1,,,,6655,inactive
tup,1,,,,6462,inactive
gd,1,,,,6020,inactive
Osi18,1,,,,6336,inactive
dnk,1,,reporter ratio lowered past the hit cutoff,,6570,inactive
CG12521,1,,,,5911,inactive
Cpr56F,1,,,,7211,inactive
CG42671,1,,,,4616,inactive
CG42671,2,,,,6370,inactive
